Laboratory results: the supplement of paper PMC10849652
Some of the results follow. Residues, ends and D or L forms follow the SMILES beside them. *: point of attachment. Cbz = O=C(OCc1ccccc1)*

Sequences of proteins named here, by UniProt entry; tags and fusion partners are left off. A change or cut given only in a name is not applied to a line headed by its entry.
UniProt Q6PID8: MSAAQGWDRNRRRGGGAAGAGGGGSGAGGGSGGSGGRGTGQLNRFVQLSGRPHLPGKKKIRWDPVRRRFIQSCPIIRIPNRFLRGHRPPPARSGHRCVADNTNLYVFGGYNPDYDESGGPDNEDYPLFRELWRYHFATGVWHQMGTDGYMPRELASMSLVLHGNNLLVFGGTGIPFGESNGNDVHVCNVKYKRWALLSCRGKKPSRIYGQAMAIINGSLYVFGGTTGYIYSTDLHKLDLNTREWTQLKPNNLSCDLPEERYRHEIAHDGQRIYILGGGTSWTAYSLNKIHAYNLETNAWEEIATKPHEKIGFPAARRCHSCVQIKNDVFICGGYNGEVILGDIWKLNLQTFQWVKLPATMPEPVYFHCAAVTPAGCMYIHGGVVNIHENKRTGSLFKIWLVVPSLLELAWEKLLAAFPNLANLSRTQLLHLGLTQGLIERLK
UniProt O95239: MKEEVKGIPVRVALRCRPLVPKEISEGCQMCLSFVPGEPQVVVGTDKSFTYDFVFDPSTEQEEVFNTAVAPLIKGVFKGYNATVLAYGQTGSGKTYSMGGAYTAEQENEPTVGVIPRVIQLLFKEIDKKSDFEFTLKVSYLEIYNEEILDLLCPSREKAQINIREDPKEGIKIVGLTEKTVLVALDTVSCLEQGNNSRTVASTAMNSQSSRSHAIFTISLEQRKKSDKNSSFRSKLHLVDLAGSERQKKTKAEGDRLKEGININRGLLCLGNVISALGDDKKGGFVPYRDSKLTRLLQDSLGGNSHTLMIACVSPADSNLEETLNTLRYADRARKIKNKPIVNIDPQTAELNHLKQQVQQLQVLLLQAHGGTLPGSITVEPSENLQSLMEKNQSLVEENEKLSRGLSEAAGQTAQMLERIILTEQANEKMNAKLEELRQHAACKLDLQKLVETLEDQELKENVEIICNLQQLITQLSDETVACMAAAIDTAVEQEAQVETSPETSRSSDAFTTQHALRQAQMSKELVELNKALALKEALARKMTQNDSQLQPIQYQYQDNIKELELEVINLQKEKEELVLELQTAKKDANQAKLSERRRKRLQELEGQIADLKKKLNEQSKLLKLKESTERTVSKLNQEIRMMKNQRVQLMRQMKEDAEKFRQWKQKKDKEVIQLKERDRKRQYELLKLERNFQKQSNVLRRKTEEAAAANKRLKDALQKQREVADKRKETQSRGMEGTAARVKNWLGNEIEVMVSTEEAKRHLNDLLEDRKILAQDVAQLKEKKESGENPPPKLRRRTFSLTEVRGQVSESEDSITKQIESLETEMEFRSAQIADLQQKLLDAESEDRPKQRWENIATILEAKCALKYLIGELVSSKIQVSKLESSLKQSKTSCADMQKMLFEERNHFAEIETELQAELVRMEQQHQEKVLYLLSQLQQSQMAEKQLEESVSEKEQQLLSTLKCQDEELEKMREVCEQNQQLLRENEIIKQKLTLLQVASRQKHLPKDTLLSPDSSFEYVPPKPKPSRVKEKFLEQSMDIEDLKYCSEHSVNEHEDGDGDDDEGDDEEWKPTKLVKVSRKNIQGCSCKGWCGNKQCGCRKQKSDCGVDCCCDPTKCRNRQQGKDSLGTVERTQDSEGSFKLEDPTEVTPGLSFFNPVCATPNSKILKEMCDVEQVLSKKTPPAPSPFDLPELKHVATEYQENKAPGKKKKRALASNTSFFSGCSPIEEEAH
UniProt Q6TDP4, whole entry, looked up: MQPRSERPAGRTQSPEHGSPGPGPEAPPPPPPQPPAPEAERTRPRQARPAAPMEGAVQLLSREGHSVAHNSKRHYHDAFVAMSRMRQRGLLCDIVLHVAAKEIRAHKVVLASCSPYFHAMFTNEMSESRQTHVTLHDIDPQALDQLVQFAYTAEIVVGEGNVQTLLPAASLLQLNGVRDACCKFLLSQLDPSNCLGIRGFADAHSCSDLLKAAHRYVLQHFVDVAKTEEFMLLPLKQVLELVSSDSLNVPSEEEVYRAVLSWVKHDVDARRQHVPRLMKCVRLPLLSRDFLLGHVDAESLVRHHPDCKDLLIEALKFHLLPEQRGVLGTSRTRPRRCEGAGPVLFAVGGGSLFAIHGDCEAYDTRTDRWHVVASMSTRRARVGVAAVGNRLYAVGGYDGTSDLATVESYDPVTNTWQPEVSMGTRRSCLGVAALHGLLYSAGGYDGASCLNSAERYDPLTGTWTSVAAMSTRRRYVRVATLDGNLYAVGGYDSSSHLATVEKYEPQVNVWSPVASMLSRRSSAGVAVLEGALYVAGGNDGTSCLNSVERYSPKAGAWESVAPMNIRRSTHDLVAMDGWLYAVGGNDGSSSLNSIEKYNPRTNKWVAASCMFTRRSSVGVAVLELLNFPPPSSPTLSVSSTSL
UniProt Q8IZD2: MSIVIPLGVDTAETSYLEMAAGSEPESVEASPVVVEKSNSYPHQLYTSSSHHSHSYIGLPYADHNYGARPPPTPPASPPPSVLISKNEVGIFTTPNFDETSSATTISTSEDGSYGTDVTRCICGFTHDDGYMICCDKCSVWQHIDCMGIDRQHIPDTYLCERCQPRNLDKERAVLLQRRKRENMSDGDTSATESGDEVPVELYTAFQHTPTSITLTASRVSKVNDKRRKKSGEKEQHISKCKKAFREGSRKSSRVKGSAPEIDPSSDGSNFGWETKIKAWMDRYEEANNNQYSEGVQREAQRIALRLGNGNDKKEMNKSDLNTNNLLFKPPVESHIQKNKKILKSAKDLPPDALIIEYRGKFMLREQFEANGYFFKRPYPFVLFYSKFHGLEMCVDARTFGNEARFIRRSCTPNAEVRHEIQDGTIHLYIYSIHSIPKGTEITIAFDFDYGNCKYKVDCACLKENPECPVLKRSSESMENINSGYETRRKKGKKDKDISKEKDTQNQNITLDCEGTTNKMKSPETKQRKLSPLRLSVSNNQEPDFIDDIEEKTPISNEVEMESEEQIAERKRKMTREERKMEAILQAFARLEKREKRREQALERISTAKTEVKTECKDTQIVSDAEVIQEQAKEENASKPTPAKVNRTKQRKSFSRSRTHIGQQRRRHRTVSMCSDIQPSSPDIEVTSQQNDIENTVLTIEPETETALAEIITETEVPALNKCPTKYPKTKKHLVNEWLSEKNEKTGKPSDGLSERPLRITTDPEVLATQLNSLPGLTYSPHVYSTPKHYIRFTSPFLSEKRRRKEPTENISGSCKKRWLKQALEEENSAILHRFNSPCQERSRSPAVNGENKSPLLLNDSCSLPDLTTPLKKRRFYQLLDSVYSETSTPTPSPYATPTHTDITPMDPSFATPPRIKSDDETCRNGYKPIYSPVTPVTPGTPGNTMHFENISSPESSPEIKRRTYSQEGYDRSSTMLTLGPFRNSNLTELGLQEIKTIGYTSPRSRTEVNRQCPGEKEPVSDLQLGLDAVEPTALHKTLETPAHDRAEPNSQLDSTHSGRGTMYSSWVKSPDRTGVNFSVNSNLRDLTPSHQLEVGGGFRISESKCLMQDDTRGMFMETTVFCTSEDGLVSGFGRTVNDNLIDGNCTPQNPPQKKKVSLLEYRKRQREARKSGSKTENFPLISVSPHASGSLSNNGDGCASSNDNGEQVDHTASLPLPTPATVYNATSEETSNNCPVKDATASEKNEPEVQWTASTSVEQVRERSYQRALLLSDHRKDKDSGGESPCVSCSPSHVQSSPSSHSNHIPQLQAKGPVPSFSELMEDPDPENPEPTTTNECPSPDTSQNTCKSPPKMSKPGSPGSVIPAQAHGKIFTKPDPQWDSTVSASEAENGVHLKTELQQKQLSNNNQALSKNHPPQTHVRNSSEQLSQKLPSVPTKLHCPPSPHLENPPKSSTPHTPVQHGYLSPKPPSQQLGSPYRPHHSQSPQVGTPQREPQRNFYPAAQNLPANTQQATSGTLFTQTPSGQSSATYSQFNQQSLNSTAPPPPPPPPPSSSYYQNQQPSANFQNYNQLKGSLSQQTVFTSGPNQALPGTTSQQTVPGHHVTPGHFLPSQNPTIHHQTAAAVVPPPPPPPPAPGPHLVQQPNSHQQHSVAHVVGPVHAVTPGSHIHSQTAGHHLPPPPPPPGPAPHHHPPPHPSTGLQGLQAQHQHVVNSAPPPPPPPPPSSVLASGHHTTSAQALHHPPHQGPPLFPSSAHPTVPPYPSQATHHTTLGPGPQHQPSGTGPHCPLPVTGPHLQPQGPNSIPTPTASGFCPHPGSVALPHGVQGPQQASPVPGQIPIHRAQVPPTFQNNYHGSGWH
UniProt Q15811: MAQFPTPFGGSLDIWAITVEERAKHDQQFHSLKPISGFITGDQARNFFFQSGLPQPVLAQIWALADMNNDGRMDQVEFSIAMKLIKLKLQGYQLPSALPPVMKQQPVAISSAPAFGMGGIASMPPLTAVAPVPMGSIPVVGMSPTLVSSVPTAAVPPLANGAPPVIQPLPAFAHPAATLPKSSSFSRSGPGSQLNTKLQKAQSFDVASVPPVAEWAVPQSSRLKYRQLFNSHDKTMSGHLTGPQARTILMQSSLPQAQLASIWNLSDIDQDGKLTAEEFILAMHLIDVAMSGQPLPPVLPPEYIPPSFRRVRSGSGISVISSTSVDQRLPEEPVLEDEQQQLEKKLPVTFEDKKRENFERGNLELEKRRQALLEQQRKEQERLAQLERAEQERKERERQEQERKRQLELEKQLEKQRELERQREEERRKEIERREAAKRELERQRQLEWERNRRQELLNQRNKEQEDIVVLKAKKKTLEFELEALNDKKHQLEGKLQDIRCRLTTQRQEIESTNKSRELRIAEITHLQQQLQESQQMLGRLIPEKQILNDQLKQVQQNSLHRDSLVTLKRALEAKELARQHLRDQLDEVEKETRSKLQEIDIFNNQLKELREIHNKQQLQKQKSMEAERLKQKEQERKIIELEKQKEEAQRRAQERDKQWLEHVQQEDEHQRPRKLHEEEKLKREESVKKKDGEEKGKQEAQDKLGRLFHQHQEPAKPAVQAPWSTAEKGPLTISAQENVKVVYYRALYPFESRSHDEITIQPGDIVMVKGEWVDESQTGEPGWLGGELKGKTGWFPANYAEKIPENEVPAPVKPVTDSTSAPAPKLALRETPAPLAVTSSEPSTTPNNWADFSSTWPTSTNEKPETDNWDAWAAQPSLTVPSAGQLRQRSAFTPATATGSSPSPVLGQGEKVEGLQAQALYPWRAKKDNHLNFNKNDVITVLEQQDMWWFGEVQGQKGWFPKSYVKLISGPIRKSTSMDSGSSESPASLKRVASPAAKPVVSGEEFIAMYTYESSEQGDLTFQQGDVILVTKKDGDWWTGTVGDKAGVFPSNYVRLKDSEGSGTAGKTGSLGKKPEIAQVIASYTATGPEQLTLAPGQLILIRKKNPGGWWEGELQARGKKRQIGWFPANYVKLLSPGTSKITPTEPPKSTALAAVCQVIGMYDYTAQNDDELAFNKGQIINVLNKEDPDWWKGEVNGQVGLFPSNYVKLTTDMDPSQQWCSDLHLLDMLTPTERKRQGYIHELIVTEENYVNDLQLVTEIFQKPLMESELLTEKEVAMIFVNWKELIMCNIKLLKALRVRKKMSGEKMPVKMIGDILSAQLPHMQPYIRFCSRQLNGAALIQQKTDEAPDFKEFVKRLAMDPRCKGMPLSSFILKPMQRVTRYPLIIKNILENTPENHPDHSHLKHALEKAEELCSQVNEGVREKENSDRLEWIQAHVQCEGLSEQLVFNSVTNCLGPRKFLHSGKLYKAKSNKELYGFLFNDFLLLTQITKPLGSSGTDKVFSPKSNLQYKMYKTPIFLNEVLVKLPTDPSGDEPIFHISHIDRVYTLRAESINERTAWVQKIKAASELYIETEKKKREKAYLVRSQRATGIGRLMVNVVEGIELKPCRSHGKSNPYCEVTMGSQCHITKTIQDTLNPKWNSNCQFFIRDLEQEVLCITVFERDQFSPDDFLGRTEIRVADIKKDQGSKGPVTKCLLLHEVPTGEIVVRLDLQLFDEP
UniProt Q9BW19: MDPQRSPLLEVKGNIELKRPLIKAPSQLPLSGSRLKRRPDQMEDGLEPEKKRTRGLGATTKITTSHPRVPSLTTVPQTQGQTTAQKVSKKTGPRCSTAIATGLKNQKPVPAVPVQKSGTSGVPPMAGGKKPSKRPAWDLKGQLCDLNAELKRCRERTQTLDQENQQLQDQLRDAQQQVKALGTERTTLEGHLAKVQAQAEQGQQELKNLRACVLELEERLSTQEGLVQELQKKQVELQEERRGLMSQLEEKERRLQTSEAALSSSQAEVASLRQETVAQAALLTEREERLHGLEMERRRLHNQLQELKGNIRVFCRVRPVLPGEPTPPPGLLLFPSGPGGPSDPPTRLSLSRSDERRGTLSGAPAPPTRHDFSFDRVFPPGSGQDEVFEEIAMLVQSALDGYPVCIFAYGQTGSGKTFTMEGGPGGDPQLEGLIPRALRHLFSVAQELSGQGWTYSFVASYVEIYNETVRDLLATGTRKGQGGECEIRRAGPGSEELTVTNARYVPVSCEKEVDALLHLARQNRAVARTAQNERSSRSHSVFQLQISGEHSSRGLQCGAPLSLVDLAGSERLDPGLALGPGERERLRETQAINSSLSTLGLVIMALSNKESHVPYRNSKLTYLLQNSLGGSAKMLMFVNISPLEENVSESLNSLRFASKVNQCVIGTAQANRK

Tests used:
Assay in all cases: log2 fold change, soluble protein after heating vs DMSO (PISA); higher = thermal stabilisation; K562 cells, 10 uM, 30 min; active = over 0.2 and 3.5 SD of the protein, either way, in both replicates (recomputed)
[1] = compound: CC(C)(O)CC(=O)NCCn1ccc2ncnc(Nc3ccc(Oc4cccc(C(F)(F)F)c4)c(Cl)c3)c21
In short: (§1)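 Values are thermal stability changes relative to control samples and are taken from duplicates. They are stated as log2 fold changes. Before quantification by TMTpro 16plex LC-MS/MS with equalised channel sums, K562 cells at 2×10^6 cells/mL were treated with 10 μM compound for 30 min, heated in aliquots for 3 min across 48°C-58°C, pooled, extracted in PBS with 0.5% NP-40 at 4°C, and centrifuged at 21,000xg for 90 min to give the soluble supernatant.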

[2] = compound: CC(C)C1=C2N=C(C=C(N2N=C1)NCC3=CC=CC=C3)NCCCCCCN
In short: as §1

[3] = compound: CC1=C(C=C(C=C1)NC(=O)C2=CC(=CC=C2)C(C)(C)C#N)NC3=CC4=C(C=C3)N=CN(C4=O)C
In short: as §1

[4] = compound: CCCCN(Cc1ccc(C(=O)NO)cc1)C(=O)Nc1ccccc1 [Nexturastat A]
In short: as §1

[5] = compound: CCN(CC)Cc1ccc2cc(COC(=O)Nc3ccc(C(=O)NO)cc3)ccc2c1 [givinostat]
In short: as §1

[6] = compound: CC1=C(C2=C(C=C1)C(=O)C3=CC=CC=C3N2CCCN)C
In short: as §1

[7] = compound: CC1=CC=C(C=C1)SC2=C3C=C(SC3=CN=C2)C(=O)N
In short: as §1

[8] = compound: CCCS(=O)(=O)Nc1ccc(F)c(C(=O)c2c[nH]c3ncc(Cl)cc23)c1F
In short: as §1

[9] = compound: CCCS(=O)(=O)Nc1ccc(F)c(C(=O)c2c[nH]c3ncc(-c4ccc(Cl)cc4)cc23)c1F [vemurafenib]
In short: as §1

[10] = compound: CC(=O)c1cnc2ccc(-c3cc(Cl)c(O)c(Cl)c3)nc2c1N[C@H]1CC[C@H](CN(C)C)CC1
In short: as §1

[11] = compound: CC(C)(C)Cn1c(N)nc2ccc(-c3[nH]c(C(C)(C)C)nc3-c3ccc(F)cc3)nc21 [ralimetinib]
In short: as §1

[12] = compound: CC(C)C[C@@H](C=O)NC(=O)[C@H](CC(C)C)NC(=O)[C@H](CC(C)C)NC(=O)OCc1ccccc1
In short: as §1

[13] = compound: CC1=C(C=C(C=C1)NC(=O)C2=CC(=CC=C2)N(C)C)NC(=O)C3=CC=C(C=C3)O
In short: as §1

[14] = compound: CC1=C(C(CC(=O)N1)C2=CC=C(C=C2)C(F)(F)F)C(=O)NC3=C(C=C4C(=C3)C=NN4)F
In short: as §1

[15] = compound: CCCc1cc(C)[nH]c(=O)c1CNC(=O)c1cc(-c2ccnc(N3CCN(C)CC3)c2)cc2c1cnn2C(C)C
In short: as §1

Measured: log2 fold change

KSR2 (UniProt Q6VAB6)
inactive: [1] 0.195 | [2] -0.112 | [3] 0.024 | [4] 0.083 | [5] 0.088

KLHDC10 (UniProt Q6PID8)
inactive: [6] 0.038 | [7] 0.061 | [8] 0.14

KIF4A (UniProt O95239)
inactive: [6] -0.021 | [9] -0.093

Copied from the results shown (two entries):
KSR2 (UniProt Q6VAB6)
inactive: [1] 0.195 | [2] -0.112 | [3] 0.024 | [4] 0.083 | [5] 0.088

KLHDC10 (UniProt Q6PID8)
inactive: [6] 0.038 | [7] 0.061 | [8] 0.14

The listing continues.

KLHL17 (UniProt Q6TDP4)
inactive: [1] -0.08 | [4] 0.228

KLC1 isoform 3 (UniProt Q07866)
inactive: [10] -0.092

KIF21A (UniProt H0YI78)
inactive: [11] 0.366 | [2] -0.158 | [12] 0.012 | [13] -0.001 | [5] 0.447

KDM3A (UniProt Q9Y4C1)
inactive: [2] 0.083 | [5] -0.078

KMT2E (UniProt Q8IZD2)
inactive: [1] 0.062 | [2] 0.104 | [4] -0.086 | [5] 0.021

KIF21B (UniProt O75037)
inactive: [11] 0.268 | [1] -0.059 | [2] 0.126 | [12] 0.239 | [14] -0.019 | [13] 0.05 | [4] 0.509 | [5] 0.293

ITSN1 (UniProt Q15811)
inactive: [10] 0.005 | [1] -0.132 | [3] -0.295 | [7] -0.025 | [4] -0.193 | [8] 0.094 | [15] -0.037

KIFC1 (UniProt Q9BW19)
inactive: [10] -0.123 | [11] 0.094 | [1] 0.154 | [12] 0.464 | [13] -0.093 | [4] -0.154 | [15] -0.152

JOSD1 (UniProt Q15040)
inactive: [10] -0.328 | [1] -0.115 | [2] 0.072 | [4] 0.05 | [5] 0.05
